This is one part of the list.
What was measured:
Assay in all cases: log2 fold change, soluble protein after heating vs DMSO (PISA); higher = thermal stabilisation; K562 lysate, 10 uM; active = over 0.2 and 3.5 SD of the protein, either way, in both replicates (recomputed)
lapatinib = compound: CS(=O)(=O)CCNCc1ccc(-c2ccc3ncnc(Nc4ccc(OCc5cccc(F)c5)c(Cl)c4)c3c2)o1 [lapatinib]
Method in brief: (§1)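 A 30 min treatment with 10 μM compound was applied to crude K562 extract at 1 mg/mL protein in PBS pH 7.4 with 1 mM MgCl2. Heating for 3 min spanned 48°C-58°C, after which aliquots were pooled, adjusted to 0.5% NP-40 at 4°C and spun at 21,000xg for 90 min. TMTpro 16plex LC-MS/MS of the supernatant, with channel sums equalised, gave values recorded as log-two fold change in thermal stability against solvent controls, from duplicates.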

Chains of the proteins cited; added tags and fusions are not shown. Lines headed by an entry give the natural chain unless they say otherwise; changes in a name come on top.
UniProt P56270: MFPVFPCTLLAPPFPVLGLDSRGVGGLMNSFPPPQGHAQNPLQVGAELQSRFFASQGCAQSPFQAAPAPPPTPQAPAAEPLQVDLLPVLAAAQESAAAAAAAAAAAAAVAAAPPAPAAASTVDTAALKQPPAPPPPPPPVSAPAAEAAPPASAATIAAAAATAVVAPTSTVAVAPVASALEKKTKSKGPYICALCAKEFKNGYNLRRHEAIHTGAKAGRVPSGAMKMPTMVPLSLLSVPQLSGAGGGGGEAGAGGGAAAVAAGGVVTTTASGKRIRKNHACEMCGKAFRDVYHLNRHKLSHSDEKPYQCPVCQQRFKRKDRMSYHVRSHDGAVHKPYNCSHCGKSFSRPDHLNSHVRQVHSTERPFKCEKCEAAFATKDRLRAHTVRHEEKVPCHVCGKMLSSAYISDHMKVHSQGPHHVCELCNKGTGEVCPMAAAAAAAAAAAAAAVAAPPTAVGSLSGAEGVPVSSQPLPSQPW
UniProt Q06413, whole entry, looked up: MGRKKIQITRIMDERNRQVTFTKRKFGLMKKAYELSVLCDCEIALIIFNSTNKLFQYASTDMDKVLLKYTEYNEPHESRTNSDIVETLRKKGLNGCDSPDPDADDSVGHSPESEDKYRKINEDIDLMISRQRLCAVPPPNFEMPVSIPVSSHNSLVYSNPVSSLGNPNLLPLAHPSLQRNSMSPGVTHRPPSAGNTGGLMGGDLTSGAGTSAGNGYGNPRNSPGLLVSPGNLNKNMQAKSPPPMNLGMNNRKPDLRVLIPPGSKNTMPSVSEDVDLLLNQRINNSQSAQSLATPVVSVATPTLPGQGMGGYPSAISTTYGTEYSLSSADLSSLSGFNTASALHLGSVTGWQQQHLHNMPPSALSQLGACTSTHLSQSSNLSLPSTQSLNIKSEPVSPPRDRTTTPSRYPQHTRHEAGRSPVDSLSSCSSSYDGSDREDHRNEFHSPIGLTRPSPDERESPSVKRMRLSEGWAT
UniProt Q5TF39: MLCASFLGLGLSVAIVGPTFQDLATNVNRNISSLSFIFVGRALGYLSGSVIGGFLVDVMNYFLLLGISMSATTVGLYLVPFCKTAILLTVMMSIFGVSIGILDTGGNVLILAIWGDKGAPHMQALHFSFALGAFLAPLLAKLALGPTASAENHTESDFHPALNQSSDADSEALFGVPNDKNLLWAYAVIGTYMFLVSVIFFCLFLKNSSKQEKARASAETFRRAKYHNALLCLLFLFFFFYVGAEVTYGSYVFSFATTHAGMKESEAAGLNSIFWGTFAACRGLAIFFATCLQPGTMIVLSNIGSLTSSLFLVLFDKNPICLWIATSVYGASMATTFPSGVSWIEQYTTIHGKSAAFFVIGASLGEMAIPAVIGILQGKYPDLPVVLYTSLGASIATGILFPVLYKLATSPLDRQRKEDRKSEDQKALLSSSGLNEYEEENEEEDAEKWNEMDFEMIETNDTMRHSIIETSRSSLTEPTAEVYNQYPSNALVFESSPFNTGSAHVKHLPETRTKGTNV
UniProt Q6P9B6: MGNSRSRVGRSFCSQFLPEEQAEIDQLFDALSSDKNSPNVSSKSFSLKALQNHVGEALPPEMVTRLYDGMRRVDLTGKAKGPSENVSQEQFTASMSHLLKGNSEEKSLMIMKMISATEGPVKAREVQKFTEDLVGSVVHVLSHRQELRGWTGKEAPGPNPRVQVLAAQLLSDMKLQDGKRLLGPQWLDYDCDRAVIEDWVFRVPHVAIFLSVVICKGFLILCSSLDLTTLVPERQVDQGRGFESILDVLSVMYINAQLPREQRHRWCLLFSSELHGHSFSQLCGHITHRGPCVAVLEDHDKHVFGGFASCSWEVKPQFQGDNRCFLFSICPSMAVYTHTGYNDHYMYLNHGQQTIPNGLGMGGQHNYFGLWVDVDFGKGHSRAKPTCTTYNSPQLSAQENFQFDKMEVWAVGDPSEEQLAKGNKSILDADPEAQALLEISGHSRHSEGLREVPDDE
UniProt Q9HCC0: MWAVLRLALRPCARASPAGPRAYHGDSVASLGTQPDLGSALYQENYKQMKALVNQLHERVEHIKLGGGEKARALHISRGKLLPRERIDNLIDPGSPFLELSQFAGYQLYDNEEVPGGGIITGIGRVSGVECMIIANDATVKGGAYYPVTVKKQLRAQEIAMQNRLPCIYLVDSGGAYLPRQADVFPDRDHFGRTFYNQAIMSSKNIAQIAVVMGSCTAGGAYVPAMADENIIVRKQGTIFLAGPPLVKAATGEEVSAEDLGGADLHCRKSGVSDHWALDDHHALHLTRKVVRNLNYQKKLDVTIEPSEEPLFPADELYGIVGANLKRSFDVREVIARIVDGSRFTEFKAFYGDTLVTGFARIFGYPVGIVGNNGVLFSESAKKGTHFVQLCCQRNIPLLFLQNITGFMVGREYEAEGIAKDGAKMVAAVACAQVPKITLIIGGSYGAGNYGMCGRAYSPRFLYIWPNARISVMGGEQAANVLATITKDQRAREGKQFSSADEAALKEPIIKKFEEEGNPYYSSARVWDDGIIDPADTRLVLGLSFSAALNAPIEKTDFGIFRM
UniProt Q86XN8: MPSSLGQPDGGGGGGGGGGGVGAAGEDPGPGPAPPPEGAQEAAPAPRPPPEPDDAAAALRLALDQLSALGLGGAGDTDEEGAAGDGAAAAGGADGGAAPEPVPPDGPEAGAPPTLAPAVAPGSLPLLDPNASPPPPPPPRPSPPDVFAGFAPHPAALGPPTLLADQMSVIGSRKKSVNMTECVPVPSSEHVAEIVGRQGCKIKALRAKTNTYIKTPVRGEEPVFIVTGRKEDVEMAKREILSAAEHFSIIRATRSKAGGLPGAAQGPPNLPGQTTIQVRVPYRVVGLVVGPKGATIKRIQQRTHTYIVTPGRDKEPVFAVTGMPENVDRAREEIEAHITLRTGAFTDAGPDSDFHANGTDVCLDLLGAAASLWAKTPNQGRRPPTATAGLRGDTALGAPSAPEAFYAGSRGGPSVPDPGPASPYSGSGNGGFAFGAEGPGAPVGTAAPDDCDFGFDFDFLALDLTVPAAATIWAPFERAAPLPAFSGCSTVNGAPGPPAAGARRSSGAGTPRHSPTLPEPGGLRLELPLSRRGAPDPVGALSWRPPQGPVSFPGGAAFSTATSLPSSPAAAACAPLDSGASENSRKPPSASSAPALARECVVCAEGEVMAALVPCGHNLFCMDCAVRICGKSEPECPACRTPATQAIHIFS
UniProt P43243: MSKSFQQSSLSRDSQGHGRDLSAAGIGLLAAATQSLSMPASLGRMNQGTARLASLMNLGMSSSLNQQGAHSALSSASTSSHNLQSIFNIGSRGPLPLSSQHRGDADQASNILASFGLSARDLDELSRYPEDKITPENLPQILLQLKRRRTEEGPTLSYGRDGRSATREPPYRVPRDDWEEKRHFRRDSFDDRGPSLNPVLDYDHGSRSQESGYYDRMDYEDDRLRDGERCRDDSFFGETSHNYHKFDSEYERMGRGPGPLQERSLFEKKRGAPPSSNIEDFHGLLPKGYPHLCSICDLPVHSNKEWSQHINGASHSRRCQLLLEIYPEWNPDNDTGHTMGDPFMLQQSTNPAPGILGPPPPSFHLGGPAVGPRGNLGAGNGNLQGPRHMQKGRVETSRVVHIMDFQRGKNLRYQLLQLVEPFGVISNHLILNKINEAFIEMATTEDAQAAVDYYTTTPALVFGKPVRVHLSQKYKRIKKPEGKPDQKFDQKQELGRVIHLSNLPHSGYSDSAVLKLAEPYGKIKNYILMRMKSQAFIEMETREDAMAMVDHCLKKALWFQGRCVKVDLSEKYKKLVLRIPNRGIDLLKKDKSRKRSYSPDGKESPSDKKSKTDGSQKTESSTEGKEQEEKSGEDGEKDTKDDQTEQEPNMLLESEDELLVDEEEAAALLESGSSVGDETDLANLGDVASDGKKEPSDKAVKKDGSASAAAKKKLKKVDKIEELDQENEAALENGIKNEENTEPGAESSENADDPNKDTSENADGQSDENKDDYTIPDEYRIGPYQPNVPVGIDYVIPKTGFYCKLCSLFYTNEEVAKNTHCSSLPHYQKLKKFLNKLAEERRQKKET
UniProt Q9GZY8: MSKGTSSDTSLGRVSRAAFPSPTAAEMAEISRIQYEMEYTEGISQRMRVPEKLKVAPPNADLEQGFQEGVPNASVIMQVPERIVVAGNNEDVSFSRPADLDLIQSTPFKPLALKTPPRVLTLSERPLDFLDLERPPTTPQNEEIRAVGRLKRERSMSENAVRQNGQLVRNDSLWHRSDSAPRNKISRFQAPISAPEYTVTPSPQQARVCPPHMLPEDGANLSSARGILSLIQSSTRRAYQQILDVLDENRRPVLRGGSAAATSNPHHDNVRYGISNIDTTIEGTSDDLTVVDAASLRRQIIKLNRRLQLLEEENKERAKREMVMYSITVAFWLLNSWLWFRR
UniProt P55081: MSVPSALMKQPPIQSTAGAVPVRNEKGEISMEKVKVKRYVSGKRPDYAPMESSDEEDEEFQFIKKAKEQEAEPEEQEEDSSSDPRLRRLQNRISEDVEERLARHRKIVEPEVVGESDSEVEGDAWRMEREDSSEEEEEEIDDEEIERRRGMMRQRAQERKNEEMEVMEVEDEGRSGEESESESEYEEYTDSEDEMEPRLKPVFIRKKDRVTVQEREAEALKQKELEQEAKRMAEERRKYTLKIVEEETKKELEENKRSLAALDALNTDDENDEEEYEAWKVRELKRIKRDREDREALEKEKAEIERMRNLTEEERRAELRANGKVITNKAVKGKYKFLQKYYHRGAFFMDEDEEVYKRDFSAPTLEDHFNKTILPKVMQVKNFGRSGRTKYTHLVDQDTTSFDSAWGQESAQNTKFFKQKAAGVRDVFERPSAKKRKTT
UniProt Q16626: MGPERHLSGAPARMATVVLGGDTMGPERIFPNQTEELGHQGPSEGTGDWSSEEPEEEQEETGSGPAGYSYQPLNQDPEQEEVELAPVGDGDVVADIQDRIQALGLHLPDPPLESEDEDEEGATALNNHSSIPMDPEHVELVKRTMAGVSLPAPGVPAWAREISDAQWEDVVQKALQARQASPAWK
UniProt Q15648, whole entry, looked up: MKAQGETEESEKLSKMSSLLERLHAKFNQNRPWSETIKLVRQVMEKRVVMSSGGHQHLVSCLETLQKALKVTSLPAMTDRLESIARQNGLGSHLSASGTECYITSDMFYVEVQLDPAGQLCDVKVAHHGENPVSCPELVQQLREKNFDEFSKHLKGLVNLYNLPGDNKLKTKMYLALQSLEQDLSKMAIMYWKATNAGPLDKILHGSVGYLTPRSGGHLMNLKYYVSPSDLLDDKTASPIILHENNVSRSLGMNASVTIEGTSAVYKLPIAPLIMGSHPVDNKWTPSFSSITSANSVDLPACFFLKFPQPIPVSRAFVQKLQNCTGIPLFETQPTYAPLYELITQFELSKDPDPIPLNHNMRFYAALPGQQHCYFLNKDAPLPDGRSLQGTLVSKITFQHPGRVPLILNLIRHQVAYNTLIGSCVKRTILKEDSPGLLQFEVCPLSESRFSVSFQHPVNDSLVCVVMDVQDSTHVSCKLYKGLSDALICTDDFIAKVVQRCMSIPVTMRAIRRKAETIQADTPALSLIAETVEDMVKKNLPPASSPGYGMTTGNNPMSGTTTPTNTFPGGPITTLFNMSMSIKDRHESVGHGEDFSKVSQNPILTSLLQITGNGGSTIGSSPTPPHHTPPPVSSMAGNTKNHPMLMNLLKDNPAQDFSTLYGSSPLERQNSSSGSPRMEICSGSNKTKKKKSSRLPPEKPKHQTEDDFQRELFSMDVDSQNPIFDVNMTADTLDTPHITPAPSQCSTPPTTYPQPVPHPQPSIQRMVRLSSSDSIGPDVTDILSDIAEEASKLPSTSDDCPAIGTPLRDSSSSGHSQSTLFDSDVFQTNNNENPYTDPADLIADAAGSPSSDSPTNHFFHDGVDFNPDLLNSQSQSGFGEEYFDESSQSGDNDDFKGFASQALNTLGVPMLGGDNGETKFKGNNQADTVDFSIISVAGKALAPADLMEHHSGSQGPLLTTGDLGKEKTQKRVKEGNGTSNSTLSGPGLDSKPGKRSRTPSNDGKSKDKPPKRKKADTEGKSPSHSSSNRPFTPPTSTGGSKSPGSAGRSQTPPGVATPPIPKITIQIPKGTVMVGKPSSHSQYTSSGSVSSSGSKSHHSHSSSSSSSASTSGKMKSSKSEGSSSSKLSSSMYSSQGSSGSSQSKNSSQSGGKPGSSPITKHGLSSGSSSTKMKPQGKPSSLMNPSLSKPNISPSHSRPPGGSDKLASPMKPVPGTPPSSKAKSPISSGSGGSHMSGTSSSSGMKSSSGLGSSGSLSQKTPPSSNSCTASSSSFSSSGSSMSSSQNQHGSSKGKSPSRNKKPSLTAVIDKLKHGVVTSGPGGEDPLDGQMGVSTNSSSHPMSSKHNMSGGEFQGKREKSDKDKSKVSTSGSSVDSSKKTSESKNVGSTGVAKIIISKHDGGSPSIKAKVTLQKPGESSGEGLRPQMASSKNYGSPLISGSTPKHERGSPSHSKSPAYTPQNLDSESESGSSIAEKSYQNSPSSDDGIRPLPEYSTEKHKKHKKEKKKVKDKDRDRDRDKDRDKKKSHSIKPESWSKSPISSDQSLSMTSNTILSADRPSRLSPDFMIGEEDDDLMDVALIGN

pictilisib = compound: CS(=O)(=O)N1CCN(Cc2cc3nc(-c4cccc5[nH]ncc45)nc(N4CCOCC4)c3s2)CC1 [pictilisib]
Method in brief: as §1

crizotinib = compound: C[C@@H](Oc1cc(-c2cnn(C3CCNCC3)c2)cnc1N)c1c(Cl)ccc(F)c1Cl [crizotinib]
Method in brief: as §1

[1] = compound: C[C@H](C1=CC=C(C=C1)C(=O)NC2=C3C=CNC3=NC=C2)N
Method in brief: as §1

duvelisib = compound: C[C@H](Nc1ncnc2nc[nH]c12)c1cc2cccc(Cl)c2c(=O)n1-c1ccccc1 [duvelisib]
Method in brief: as §1

gandotinib = compound: Cc1cc(Nc2cc(CN3CCOCC3)c3nc(C)c(Cc4ccc(Cl)cc4F)n3n2)n[nH]1 [gandotinib]
Method in brief: as §1

tozasertib = compound: Cc1cc(Nc2cc(N3CCN(C)CC3)nc(Sc3ccc(NC(=O)C4CC4)cc3)n2)n[nH]1 [tozasertib]
Method in brief: as §1

doramapimod = compound: Cc1ccc(-n2nc(C(C)(C)C)cc2NC(=O)Nc2ccc(OCCN3CCOCC3)c3ccccc23)cc1 [doramapimod]
Method in brief: as §1

bafetinib = compound: Cc1ccc(NC(=O)c2ccc(CN3CC[C@H](N(C)C)C3)c(C(F)(F)F)c2)cc1Nc1nccc(-c2cncnc2)n1 [bafetinib]
Method in brief: as §1

[2] = compound: Cc1cccc(CC(=O)N2CCc3c2ccc(-c2cn(C)c4ncnc(N)c24)c3F)n1
Method in brief: as §1

Measured: log2 fold change

MAZ isoform 2 (UniProt P56270)
inactive: lapatinib -0.068 | pictilisib 0.01 | crizotinib 0.015 | [1] -0.031 | duvelisib -0.121 | gandotinib 0.15 | tozasertib -0.082 | doramapimod 0.09 | bafetinib -0.022 | [2] -0.008

MEF2D (UniProt Q14814)
inactive: lapatinib 0.008 | pictilisib -0.001 | crizotinib 0.062 | [1] -0.006 | duvelisib -0.068 | gandotinib 0.055 | tozasertib -0.016 | doramapimod -0.041 | bafetinib 0.053 | [2] 0.016

MED13L (UniProt Q71F56)
inactive: lapatinib 0.034 | pictilisib -0.072 | crizotinib -0.039 | [1] -0.047 | duvelisib -0.083 | gandotinib -0.005 | tozasertib -0.019 | doramapimod 0.026 | bafetinib -0.061 | [2] 0.035

METTL6 (UniProt Q8TCB7)
inactive: lapatinib 0.011 | pictilisib 0.152 | crizotinib -0.082 | [1] 0.015 | duvelisib -0.078 | gandotinib -0.045 | tozasertib 0.075 | doramapimod 0.026 | bafetinib -0.043 | [2] 0.057

MCAM (UniProt P43121)
inactive: lapatinib -0.007 | pictilisib -0.023 | crizotinib 0.024 | [1] -0.054 | duvelisib 0.009 | gandotinib 0.066 | tozasertib -0.05 | doramapimod -0.044 | bafetinib -0.017 | [2] -0.003

MEAF6 isoform 3 (UniProt Q9HAF1)
inactive: lapatinib 0.054 | pictilisib 0.022 | crizotinib -0.053 | [1] -0.131 | duvelisib -0.021 | gandotinib 0.09 | tozasertib -0.049 | doramapimod 0.117 | bafetinib 0.013 | [2] 0.039

MED23 (UniProt Q9ULK4)
inactive: lapatinib -0.019 | pictilisib -0.024 | crizotinib 0 | [1] -0.041 | duvelisib 0.023 | gandotinib -0.111 | tozasertib 0.018 | doramapimod -0.005 | bafetinib -0.042 | [2] 0.061

MDC1 (UniProt Q14676)
inactive: lapatinib -0.004 | pictilisib -0.031 | crizotinib -0.019 | [1] -0.016 | duvelisib -0.009 | gandotinib 0.005 | tozasertib -0.008 | doramapimod 0.021 | bafetinib 0 | [2] 0.018

MCRIP1 (UniProt I3L4Q0)
inactive: lapatinib 0.008 | pictilisib -0.082 | crizotinib 0.005 | [1] 0.01 | duvelisib 0.038 | gandotinib 0.021 | tozasertib 0.027 | doramapimod 0.046 | bafetinib -0.091 | [2] -0.046

MEF2C isoform 5 (UniProt Q06413)
inactive: lapatinib 0.094 | pictilisib -0.038 | crizotinib -0.007 | [1] -0.016 | duvelisib 0.13 | gandotinib 0.086 | tozasertib 0.077 | doramapimod 0.095 | bafetinib -0.066 | [2] 0.059

MFSD4B (UniProt Q5TF39)
inactive: lapatinib -0.071 | pictilisib 0.204 | crizotinib -0.021 | [1] 0.027 | duvelisib 0.02 | gandotinib 0.109 | tozasertib 0.241 | doramapimod -0.096 | bafetinib -0.039 | [2] 0.056

MED6 (UniProt O75586)
inactive: lapatinib 0.016 | pictilisib -0.036 | crizotinib -0.053 | [1] -0.105 | duvelisib 0.034 | gandotinib 0.057 | tozasertib -0.003 | doramapimod 0.141 | bafetinib -0.033 | [2] 0.01

Two entries picked at random from the list so far, as already listed:
MFSD4B (UniProt Q5TF39)
inactive: lapatinib -0.071 | pictilisib 0.204 | crizotinib -0.021 | [1] 0.027 | duvelisib 0.02 | gandotinib 0.109 | tozasertib 0.241 | doramapimod -0.096 | bafetinib -0.039 | [2] 0.056

MEF2D (UniProt Q14814)
inactive: lapatinib 0.008 | pictilisib -0.001 | crizotinib 0.062 | [1] -0.006 | duvelisib -0.068 | gandotinib 0.055 | tozasertib -0.016 | doramapimod -0.041 | bafetinib 0.053 | [2] 0.016

(continued)

MBOAT2 (UniProt Q6ZWT7)
inactive: lapatinib -0.067 | pictilisib 0.061 | crizotinib -0.005 | [1] -0.175 | duvelisib 0.009 | tozasertib 0.106 | doramapimod -0.12 | bafetinib -0.049 | [2] 0.281
active: gandotinib 0.319

MBD2 (UniProt Q9UBB5)
inactive: lapatinib -0.009 | pictilisib 0.017 | crizotinib 0.006 | [1] -0.035 | duvelisib 0.02 | gandotinib -0.004 | tozasertib 0.029 | doramapimod 0.045 | bafetinib -0.006 | [2] -0.032

MED16 (UniProt Q9Y2X0)
active: gandotinib -0.261
inactive: lapatinib -0.014 | pictilisib -0.154 | crizotinib 0.03 | [1] 0.167 | duvelisib -0.027 | tozasertib 0.012 | doramapimod 0.021 | bafetinib 0.051 | [2] -0.065

MEAK7 (UniProt Q6P9B6)
inactive: lapatinib -0.005 | pictilisib -0.005 | crizotinib -0.006 | [1] 0.034 | duvelisib -0.011 | gandotinib 0.007 | tozasertib 0.034 | doramapimod -0.029 | bafetinib 0.002 | [2] 0.008

MAVS (UniProt Q7Z434)
inactive: lapatinib 0.01 | pictilisib -0.019 | crizotinib 0 | [1] -0.037 | duvelisib 0.022 | gandotinib 0.029 | tozasertib 0.037 | doramapimod -0.027 | bafetinib -0.009 | [2] 0.023

MCCC2 (UniProt Q9HCC0)
inactive: lapatinib 0 | pictilisib -0.03 | crizotinib 0.02 | [1] -0.011 | duvelisib 0.006 | gandotinib 0.019 | tozasertib -0.013 | doramapimod -0.023 | bafetinib 0.024 | [2] -0.016

ME2 (UniProt P23368)
inactive: lapatinib -0.003 | pictilisib -0.016 | crizotinib 0.014 | [1] -0.006 | duvelisib -0.039 | gandotinib 0.031 | tozasertib -0.005 | doramapimod 0.015 | bafetinib 0.006 | [2] 0.005

MEX3D isoform 3 (UniProt Q86XN8)
inactive: lapatinib -0.018 | pictilisib -0.055 | crizotinib -0.024 | [1] -0.007 | duvelisib -0.145 | gandotinib -0.002 | tozasertib -0.182 | doramapimod 0.071 | bafetinib 0.113 | [2] 0.03

MATR3 (UniProt P43243)
inactive: lapatinib 0.002 | pictilisib 0.009 | crizotinib -0.028 | [1] -0.136 | duvelisib 0.074 | gandotinib 0.017 | tozasertib -0.011 | doramapimod 0.153 | bafetinib -0.052 | [2] 0.07

MED10 (UniProt Q9BTT4)
inactive: lapatinib 0.107 | pictilisib 0.232 | crizotinib 0.016 | [1] -0.024 | duvelisib 0.016 | gandotinib 0.04 | tozasertib -0.057 | doramapimod 0.014 | bafetinib 0.187 | [2] 0.055

MFF isoform 2 (UniProt Q9GZY8)
inactive: lapatinib 0.055 | pictilisib 0.028 | crizotinib 0 | duvelisib 0.022 | gandotinib 0.106 | tozasertib -0.031 | doramapimod -0.035 | bafetinib -0.031 | [2] 0.24
active: [1] -0.239

MFAP1 (UniProt P55081)
inactive: lapatinib 0.021 | pictilisib 0.037 | crizotinib 0.079 | [1] -0.048 | duvelisib -0.028 | gandotinib 0.017 | tozasertib -0.031 | doramapimod -0.135 | bafetinib -0.033 | [2] 0.014

MED21 (UniProt Q13503)
inactive: lapatinib 0.004 | pictilisib -0.061 | crizotinib -0.072 | [1] 0.259 | duvelisib 0 | gandotinib -0.08 | tozasertib 0.203 | doramapimod -0.11 | bafetinib 0.171 | [2] 0.167

MEA1 (UniProt Q16626)
inactive: lapatinib 0.103 | pictilisib -0.183 | crizotinib -0.025 | [1] -0.013 | duvelisib 0.089 | gandotinib -0.018 | tozasertib 0.046 | doramapimod 0.018 | bafetinib 0.154 | [2] -0.004

MED12 isoform 2 (UniProt Q93074)
inactive: lapatinib 0.009 | pictilisib 0.017 | crizotinib -0.017 | [1] 0.002 | duvelisib 0 | gandotinib -0.072 | tozasertib -0.033 | doramapimod 0.011 | bafetinib -0.012 | [2] -0.011

MED1 (UniProt Q15648)
inactive: lapatinib 0.024 | pictilisib -0.028 | crizotinib -0.023 | [1] 0.018 | duvelisib 0 | gandotinib 0.007 | tozasertib -0.008 | doramapimod -0.01 | bafetinib -0.046 | [2] 0.045

MCCC1 (UniProt Q96RQ3)
inactive: lapatinib -0.022 | pictilisib -0.038 | crizotinib -0.004 | [1] 0.106 | duvelisib 0.017 | gandotinib -0.14 | tozasertib -0.019 | doramapimod 0.003 | bafetinib -0.048 | [2] -0.093
